Test results: PubChem BioAssay AID743238 (Broad Institute, 2013)
Out of some 360,000 compounds screened, about 200 (0.056%) were called active. The inconclusive results got no clear call from the source; some entries with a clear call stand among them for comparison.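 How the source made its calls: active means mean normalized replicate activation at least 10% and every replicate at or above 10%; inconclusive means only one of the two criteria met; inactive means mean below 10% and not all replicates reach 10%.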

Assay: activators of inactive X chromosome reactivation, primary screen, imaging, XiGFP fibroblasts, GFP high-content imaging, set 2 (AID 743238);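 further: 0% = median of on-plate neutral control wells and 100% = ellipticine 6 µM median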
Details: XiGFP mouse fibroblasts, % GFP-positive cells imaging, 3 d; at 7.58 µM; stronger effect = higher value; cells co-treated with 5-aza-dC sensitizer; scaled so ellipticine positive control = 100%
How it was run: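 Assay system: SV40-immortalized XiGFP fibroblast cells, line 68-5-11; buffer or medium: DMEM plus 5-aza-dC sensitizer; compound: one concentration, pinned; timing: compounds 3 days, fix/stain 15 min at room temperature; benchmarks: positive control ellipticine, 6 µM final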

Question: For `C=C(C)c1cccc(C(C)(C)NC(=O)Nc2nnc(C(C)C)s2)c1`, which activation is on record?
Answer: inconclusive: 0.244%

Question: With `NNC(=O)c1sc(-c2ccccc2)cc1N` as the compound, how does the activation read?
Answer: inconclusive: 11.8%

Question: Which activation does the source give for `CC(=O)c1ccc2c(c1)OCCOCCOCCOCCOCCO2` here?
Answer: inconclusive: 18.7%

Question: For `Cc1noc(C)c1NC(=O)N(C)C[C@@H]1Oc2ccc(NC(=O)C3CC3)cc2CC(=O)N([C@@H](C)CO)C[C@@H]1C`, which activation is on record?
Answer: inconclusive: 27.3%

Question: Which activation does the source give for `CC(O)CN(CC(C)O)c1ccc2c(c1)Cc1cc([N+](=O)[O-])ccc1-2` (stereo not given) here?
Answer: active: 29.2%

Question: For `CC(C)OC(=O)CC(=O)CSc1nc(-c2ccc(F)cc2)cc(-c2ccccc2)c1C#N`, which activation is on record?
Answer: inconclusive: 18.1%

Question: With `O=C(Nc1cc(Cl)cc(Cl)c1)N[C@H]1CC[C@H](CCNS(=O)(=O)c2cccc(F)c2)O[C@@H]1CO` as the compound, how does the activation read?
Answer: inactive: -0.108%

Question: With `CC(=O)c1ccc(NC(=O)COC(=O)CCc2ccc(S(=O)(=O)N3CCOCC3)cc2)cc1` as the compound, how does the activation read?
Answer: inconclusive: 11.7%

Question: For `Cc1ccc(Cn2cc(/C=N/NC(=O)Cc3nnc(NC(=O)c4ccc(C)cc4)s3)c3ccccc32)cc1`, which activation is on record?
Answer: inactive: 0.035%

Question: Which activation does the source give for `CCN1CCc2c(sc(NC(=O)c3ccc4ccccc4c3)c2C(N)=O)C1` here?
Answer: active: 38.1%

Question: Which activation does the source give for `Cn1cc(C2=C(c3ccc(Cl)cc3Cl)C(=O)NC2=O)c2ccccc21` here?
Answer: active: 58.5%

Question: With `O=C(NNC(=O)c1ccccc1Cl)c1ccccc1Cl` as the compound, how does the activation read?
Answer: inconclusive: 20.1%

Question: Which activation does the source give for `CCCCC(=O)N(C)c1c(CC)nc2c(OCC(=O)c3ccc(F)cc3)cccn12` here?
Answer: inconclusive: 12.2%

Question: With `OC[C@@H]1CN(Cc2ccc(-c3ccccc3)cc2)C[C@H](n2cnc3c(Nc4ccccc4)ncnc32)O1` as the compound, how does the activation read?
Answer: inactive: 0.239%

Question: For `CC1Oc2ccccc2C=C1/C=N\NC(=O)c1cccnc1` (stereo not given), which activation is on record?
Answer: inconclusive: 13.2%

Question: For `Cc1ccc(NC(=O)NC2CCCc3ccccc32)cc1` (stereo not given), which activation is on record?
Answer: inactive: 0.148%

Question: With `Cc1cc(=O)[nH]c(N/N=C/c2cc(C)n(CC(F)(F)F)c2C)n1` as the compound, how does the activation read?
Answer: inconclusive: 13.1%

Question: For `O=C(N/N=C/c1ccc2cccnc2c1)c1nc2ccccc2c(=O)[nH]1`, which activation is on record?
Answer: inconclusive: 0.371%

Question: For `O=C(CCn1nc(-c2ccc(Cl)cc2)c2ccccc2c1=O)NN1CCOCC1`, which activation is on record?
Answer: inconclusive: 19.4%

Question: For `Cn1c(=N)n(CC(=O)c2ccccc2)c2ccccc21`, which activation is on record?
Answer: inconclusive: 17.2%

Question: Which activation does the source give for `COc1ccccc1NC(=O)N[C@H]1C=C[C@@H](CC(=O)N[C@@H](C)c2ccccc2)O[C@@H]1CO` here?
Answer: inconclusive: 10.3%

Question: For `CC(C)N1CCc2c(sc(NC(=O)c3ccc4ccccc4c3)c2C(N)=O)C1`, which activation is on record?
Answer: active: 99.2%

Question: With `COC(=O)c1cnn(-c2ccccc2)c1N` as the compound, how does the activation read?
Answer: inconclusive: -0.016%

Question: For `O=CNc1ccc2c3c(cccc13)-c1ccccc1-2`, which activation is on record?
Answer: active: 54.6%

Question: For `Nc1ccccc1Sc1ccc(C(F)(F)F)cc1[N+](=O)[O-]`, which activation is on record?
Answer: inconclusive: 17.8%

Question: Which activation does the source give for `O=C(CNC(=O)c1ccccc1F)N/N=C/c1ccco1` here?
Answer: inactive: 3.29%

Question: Which activation does the source give for `CCOC(=O)[C@]12CCC=C1N(Cc1ccccc1)C(=O)[C@H](CC(=O)N1CCSCC1)C2` here?
Answer: inconclusive: 17.8%

Question: For `CCOC(=O)/C(=C/C=C1\Sc2cc(C)c(C)cc2N1CC)C(C)=O`, which activation is on record?
Answer: active: 16.6%

Question: For `CSc1ccc(CN2C(=O)NC3(CCCCCCC3)C2=O)cc1`, which activation is on record?
Answer: inconclusive: 11.7%

Question: With `CN(C)C(=O)C[C@@H]1C=C[C@H](NS(=O)(=O)c2ccccc2)[C@@H](CO)O1` as the compound, how does the activation read?
Answer: inconclusive: 17%

Question: Which activation does the source give for `O=C(CNC(=O)c1ccccc1F)OCc1nc2ccccc2s1` here?
Answer: inconclusive: 17.7%

Question: For `Cc1ccc(NC(=O)/C=C/c2ccc([N+](=O)[O-])s2)c(C)c1`, which activation is on record?
Answer: active: 37.3%

Question: With `COc1ccc(-c2ccc3[nH]c4c(c3c2)CCN2C(=O)[C@@H]([C@H](C)O)[C@@H](N(C)C(=O)Nc3ccc(F)cc3)C[C@@H]42)cc1` as the compound, how does the activation read?
Answer: inconclusive: 18%

Question: For `CCOC(=O)C1=C(O)/C(=C/c2cc(OC)c(O)c(OC)c2)SC1=Nc1ccc(OC)cc1`, which activation is on record?
Answer: active: 14.6%

Question: With `Nc1c(-c2ccccc2)c(CN2CCOCC2)nn1-c1ccc(C(=O)O)cc1` as the compound, how does the activation read?
Answer: inconclusive: 30.3%

Question: Which activation does the source give for `CCc1ccc(N2CC(C(=O)Nc3cc(C)on3)CC2=O)cc1` (stereo not given) here?
Answer: inconclusive: 15.4%

Question: For `COc1ccccc1-c1ccc(/C=N/O)o1`, which activation is on record?
Answer: inconclusive: 17.1%

Question: With `COc1ccc(/C=C\c2onc(C)c2S(=O)(=O)N2CCC(C(=O)NCc3ccco3)CC2)cc1` as the compound, how does the activation read?
Answer: active: 11%

Question: For `CCOC(=O)C1(Cc2ccccc2C)CCCN(C(=O)CSC)C1` (stereo not given), which activation is on record?
Answer: inconclusive: 10.3%

Question: For `CN(C1CCCCC1)S(=O)(=O)c1ccc(C(=O)N2CCN(c3nc4ccccc4s3)CC2)cc1`, which activation is on record?
Answer: inconclusive: 13%

Question: For `C[C@H]1CN([C@@H](C)CO)C(=O)c2cc(NC(=O)CCCCCC(=O)Nc3ccccc3N)ccc2O[C@H]1CN(C)C(=O)Nc1ccccc1`, which activation is on record?
Answer: inconclusive: 21%

Question: For `Nc1ccc2c3c(cccc13)-c1ccccc1-2`, which activation is on record?
Answer: active: 117%

Question: Which activation does the source give for `Cc1ccc(S(=O)(=O)NN2C(=O)/C(=C/c3ccccn3)SC2=S)cc1` here?
Answer: inconclusive: 15.4%

Question: Which activation does the source give for `C/C=C/c1ccc([C@@H]2[C@@H](CN(C(=O)COC)C(C)C)N(C(C)=O)[C@H]2CO)cc1` here?
Answer: inactive: -0.0535%

Question: With `Cc1nc(C(C)N(C)Cc2nc(-c3ccc4c(c3)OCO4)no2)c(C)s1` (stereo not given) as the compound, how does the activation read?
Answer: inconclusive: 10.6%

Question: For `CC(C)CC(=O)Nc1c2c(nn1-c1ccc(F)cc1)CSC2`, which activation is on record?
Answer: inconclusive: 14.2%

Question: With `CN(C)S(=O)(=O)c1cccc(C(=O)NCC2(N3CCOCC3)CCCCC2)c1` as the compound, how does the activation read?
Answer: inconclusive: 0.184%

Question: Which activation does the source give for `CS(=O)(=O)c1ccc(S(=O)CC(=O)OCc2ccccc2)c([N+](=O)[O-])c1` (stereo not given) here?
Answer: inconclusive: 78.5%

Question: For `COc1ccccc1NC(=O)N(C)C[C@@H]1Oc2ncc(Br)cc2C(=O)N([C@@H](C)CO)C[C@H]1C`, which activation is on record?
Answer: inactive: -0.14%

Question: For `CC1=C(Cl)C2=NS(=O)(=O)CCN2C=C1Cl`, which activation is on record?
Answer: inconclusive: 15.9%

Question: With `Cc1ccc(/C=C/C(=O)N2CCN(S(=O)(=O)/C=C/c3ccccc3)CC2)o1` as the compound, how does the activation read?
Answer: inconclusive: 14.5%

Question: With `Cc1c(CN2CCCC(C(=O)c3cccc(OC(C)C)c3)C2)c(=O)n(-c2ccccc2)n1C` (stereo not given) as the compound, how does the activation read?
Answer: inconclusive: 14%

Question: For `Cc1ccc(S(=O)(=O)Nc2ccc3c(c2)CC(=O)N([C@H](C)CO)C[C@@H](C)[C@@H](CN(C)Cc2ccc(Cl)c(Cl)c2)O3)cc1`, which activation is on record?
Answer: inactive: 0.188%

Question: With `O=C(Nc1ccc(F)cc1)N1CC(=O)N2[C@H](CO)[C@H](c3ccc(C#Cc4ccc(F)cc4)cc3)[C@@H]2C1` as the compound, how does the activation read?
Answer: inconclusive: 15.3%

Question: Which activation does the source give for `Cc1cc(C(=O)NCc2cc(F)cc3c2OCOC3)nn1C` here?
Answer: inconclusive: 12.1%

Question: With `Cc1c2c(cc3c1[nH]c1ccccc13)C=NCC2` as the compound, how does the activation read?
Answer: inconclusive: 13.6%

Question: Which activation does the source give for `CCC(=O)N1CC(=O)N2[C@@H](CO)[C@@H](c3ccc(-c4ccccc4F)cc3)[C@@H]2C1` here?
Answer: inconclusive: 30.7%

Question: For `COc1ccccc1/C=C/C(=O)OCCCN(C)C`, which activation is on record?
Answer: active: 70.6%

Question: Which activation does the source give for `O=C1CSC(c2cccnc2)N1Cc1ccc(Cl)cc1Cl` (stereo not given) here?
Answer: inconclusive: 13.9%

Question: For `CCCNC(=O)C[C@H]1CC[C@@H]2[C@@H](COc3ccc(NC(=O)NC(C)C)cc3C(=O)N2C)O1`, which activation is on record?
Answer: inactive: 0.267%

Question: For `O=C(CSc1nc2ccccc2[nH]1)N/N=C/C=C/c1ccccc1[N+](=O)[O-]`, which activation is on record?
Answer: inconclusive: 12.6%

Question: For `COc1cccc(C(=O)c2c(-c3ccccc3)ncc3cc(OC)c(OC)cc23)c1`, which activation is on record?
Answer: inconclusive: 19.5%

Question: Which activation does the source give for `C[C@@H]1CN([C@@H](C)CO)C(=O)c2ccccc2-c2ccccc2CO[C@@H]1CN(C)C(=O)Nc1ccc2c(c1)OCO2` here?
Answer: inconclusive: 35.3%

Question: For `O=C(COC(=O)c1cc(=O)[nH]c(=O)[nH]1)Nc1cccc(S(=O)(=O)N2CCCCC2)c1`, which activation is on record?
Answer: inconclusive: 27.8%

Question: With `O=c1[nH]nc(SCCS(=O)(=O)c2ccc(F)cc2)n1-c1ccccc1C(F)(F)F` as the compound, how does the activation read?
Answer: inconclusive: 38.4%

Question: With `Cc1cccc(C(=O)NCc2ccc(S(N)(=O)=O)cc2)c1[N+](=O)[O-]` as the compound, how does the activation read?
Answer: inconclusive: 10.5%

Question: For `O=[N+]([O-])c1ccc(/C=N/NC(=S)Nc2ccc(Cl)cc2Cl)s1`, which activation is on record?
Answer: active: 12.8%

Question: For `CCCN1CCN(C(=O)C2CCN(c3nnc(C)c4c(C)n(-c5ccc(C)cc5)nc34)CC2)CC1`, which activation is on record?
Answer: inconclusive: 12.5%

Question: With `Cc1ccc(N(C)C(=O)C2CCN(S(=O)(=O)c3ccc4c(c3)oc(=O)n4C)CC2)cc1` as the compound, how does the activation read?
Answer: inconclusive: 22.7%

Question: Which activation does the source give for `CCCCCCCCN1C(=O)[C@H](CC(=O)N2CCSCC2)C[C@@]2(C(=O)OCC)CCCC=C12` here?
Answer: inconclusive: 28.6%

Question: For `C[C@@H]1CN([C@H](C)CO)C(=O)c2cc(-c3ccc(C(=O)N(C)C)cc3)cnc2O[C@H]1CN(C)C`, which activation is on record?
Answer: inactive: -0.78%

Question: With `COc1ccccc1/C=C/C(=O)OCC(=O)NC(=O)NC1CCCC1` as the compound, how does the activation read?
Answer: inconclusive: 16.5%

Question: With `CC(C)N1CCc2c(sc(NC(=O)c3cc4cc([N+](=O)[O-])ccc4s3)c2C(N)=O)C1` as the compound, how does the activation read?
Answer: active: 64.6%

Question: For `O=S(=O)(Nc1cc2nc3ccccc3nc2n1Cc1ccccc1)c1ccc(Cl)cc1`, which activation is on record?
Answer: active: 78.4%

Question: Which activation does the source give for `O=C1c2ccccc2C(=Cc2cccnc2)c2ccccc21` here?
Answer: inconclusive: 24.2%

Question: For `COc1ccc(CN(C)C[C@H]2Oc3ccc(NC(=O)c4ccncc4)cc3C(=O)N([C@@H](C)CO)C[C@@H]2C)cc1`, which activation is on record?
Answer: inactive: -0.077%

Question: With `CCC(CO)[n+]1c(C)cc(/C=C2\Sc3ccccc3N2Cc2ccccc2)cc1C` (stereo not given) as the compound, how does the activation read?
Answer: active: 103%

Question: With `CCn1c(COc2ccc(=O)n(-c3ccccc3)n2)nnc1SCC(=O)OC` as the compound, how does the activation read?
Answer: inactive: 0.037%

Question: With `Cc1nn2c(NCCCN(C)C)c3c(nc2c1-c1ccccc1)CCCC3` as the compound, how does the activation read?
Answer: inconclusive: 16.9%

Question: With `COC(=O)[C@@H](NS(=O)(=O)c1cc(Br)ccc1Br)C(C)C` as the compound, how does the activation read?
Answer: inactive: 0.216%
